# Measurements published in PubChem BioAssay AID504834 (National Center for Advancing Translational Sciences (NCATS), 2011).
# Out of some 320,000 compounds screened, about 22,000 (6.9%) were called active. The shares of active, inactive and inconclusive entries below differ from those in the screen. Calls come from the whole dose curve; as a rule, active = well fitted inhibition curve with a large enough effect; inconclusive = small, poorly fitted or top-dose-only effect, or another doubt; inactive = no such curve, though single readings can be large or run the other way. A potency beside an inconclusive call is a rough fit, not a confirmed value.
# Experiment: Primary qHTS for delayed death inhibitors of the malarial parasite plastid, 96 hour incubation
# Conditions: P. falciparum luciferase reporter growth; series mostly up to 28.7 µM
# Outline: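 Cell-based qHTS: luciferase-tagged P. falciparum in erythrocytes (2% hematocrit, 0.05% parasitemia final) incubated with compounds for 96 hours, 37 C, 5% CO2; luciferase detection reagent then added and luminescence measured.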
# Potency is the fitted concentration of half-maximal effect.
row,Structure (SMILES),Potency
1,O=C(O)c1cc(S(=O)(=O)N2CCCCC2)ccc1Cl,"inconclusive: 3.29 µM [inhibitor, single point]"
2,Cc1ccc(C(=O)NNC(=O)Cc2cccs2)cc1,inactive
3,CC(C)Cn1c(N)c(C(=O)COC(=O)c2cc(C3CC3)nc3ccccc23)c(=O)n(C)c1=O,active: 11.7 µM
4,O=C(NCCO)c1nc2ccccc2s1,inactive
5,O=C(c1cc(F)c(F)cc1Cl)N1CCCCC1,"inconclusive: 11.7 µM [inhibitor, single point]"
6,COCC(C)NC(=O)/C(=C/c1ccccc1)c1ccccc1 (configuration not stated),"inconclusive: 4.65 µM [inhibitor, partial curve]"
7,CCOC(=O)c1c(NC(C)=O)sc(/C(C)=N/Nc2ccc(C(=O)O)cc2)c1C,inactive
8,CCOC(=O)NC(=O)/C(C#N)=N\Nc1ccc(Cl)cc1,"inconclusive: 7.38 µM [inhibitor, partial curve]"
9,CCOC(=O)CC(NC(=O)C1c2ccccc2Oc2ccccc21)c1ccccc1Cl (configuration not stated),inactive
10,S=C(c1c[nH]c2ccccc12)N1CCCC1,"inconclusive: 11.7 µM [inhibitor, partial curve, poor fit]"
11,COc1ccc(CCNC(=S)N2CCN(S(=O)(=O)c3cccc(F)c3)CC2)cc1,"inconclusive: 11.7 µM [inhibitor, single point]"
12,CC(C)(C)c1nnc(NS(=O)(=O)c2ccc([N+](=O)[O-])cc2)s1,inactive
13,O=C1C2C(c3cccc(/C=C/c4ccccc4)c3)CC=CC2C(c2ccc3ccccc3c2)N1Cc1ccccc1 (configuration not stated),"inconclusive: 3.7 µM [inhibitor, single point]"
14,COc1ccc(NC(=O)CSc2nc(O)cc(=O)n2C)cc1,"inconclusive: 18.5 µM [inhibitor, single point]"
15,CN(C)c1nc2c(c(=O)[nH]c(=O)n2C)n1CCCc1ccccc1,inactive
16,COCCNC(=O)C(=O)Nc1ccc(Cl)cc1C,"inconclusive: 6.57 µM [inhibitor, partial curve, poor fit]"
17,Cc1ccc(NC(=O)CCn2cnc3ccccc3c2=O)cc1,"inconclusive: 0.928 µM [inhibitor, full curve]"
18,CCc1ccc(NC(=O)CC2C(=O)N(c3ccc(C)cc3)C(=O)N2C2CC2)cc1 (configuration not stated),"inconclusive: 0.415 µM [inhibitor, full curve, poor fit]"
19,COc1ccc(C(=O)NNC(=O)CSc2nnc(COc3ccccc3OC)n2C)cc1,"inconclusive: 4.65 µM [inhibitor, partial curve, poor fit]"
20,Cc1ccc(C(=O)Oc2ccc(-c3nccc(-c4ccccn4)n3)cc2)cc1,"inconclusive: 18.5 µM [inhibitor, single point]"
21,CCCN(CC(=O)Nc1ccccc1C)C(=O)c1ccc(C2SCCS2)cc1,inactive
22,COc1cccc(CNC(=O)CN2C(=O)CSc3ccc(S(=O)(=O)N4CCCCC4)cc32)c1,"inconclusive: 16.5 µM [inhibitor, single point]"
23,Cc1ccc(N(C(=O)c2snc(C(N)=O)c2N)C(C(=O)NC2CCCC2)c2ccc(C)o2)cc1 (configuration not stated),"inconclusive: 9.28 µM [inhibitor, single point]"
24,Cc1ccccc1N1C(=O)c2sc3nc4c(c(=O)n3c2C1=O)CCC4,"inconclusive: 18.5 µM [inhibitor, single point]"

row,Structure (SMILES),Potency
1,CCc1c(C)nc2ncnn2c1N1CCN(S(=O)(=O)c2ccc(OC)cc2)CC1,"inconclusive: 1.47 µM [inhibitor, partial curve, poor fit]"
2,C[n+]1ccc(-c2ccccc2)c2ccccc21,"inconclusive: 4.65 µM [inhibitor, partial curve, poor fit]"
3,CC(=O)Nc1ccc(N2C(=O)CSC2c2cccc([N+](=O)[O-])c2)cc1 (configuration not stated),inactive
4,NNC(=O)COc1ccc2oc3c(c2c1)CCCC3,inactive
5,CCN(C(=S)NC(=O)C1CCCC1)C1CCCCC1,"inconclusive: 11.7 µM [inhibitor, single point]"
6,CCCn1c(NC(=O)c2cccc(S(=O)(=O)N3CCCC3)c2)nc2ccccc21,active: 9.28 µM
7,COc1ccc(NC(=O)CS(=O)CC(=O)NC2CCCc3ccccc32)cc1 (configuration not stated),"inconclusive: 9.28 µM [inhibitor, single point]"
8,CCCN1CCC(NC(=O)Cc2cccc(C)c2)CC1,"inconclusive: 5.22 µM [inhibitor, single point]"
9,O=C(Nc1ccc(CN2CCOCC2)cc1)c1cc(Br)ccc1Cl,"inconclusive: 18.5 µM [inhibitor, single point]"
10,CC(=O)c1cccc(NC(=O)CCn2c(=S)oc3ccccc32)c1,inactive
11,Brc1ccc2nc(-c3cccs3)c(NCC3CCCO3)n2c1 (configuration not stated),inactive
12,O=C(c1ccccc1)c1cc(F)c(N2CCOCC2)cc1Cl,active: 9.28 µM
13,Cc1ccc(-n2ncc3c(NCc4ccccn4)ncnc32)c(C)c1,"inconclusive: 18.5 µM [inhibitor, single point]"
14,COc1ccc(CCNc2c(N)n(Cc3ccccc3)c(=O)[nH]c2=O)cc1OC,inactive
15,CCC(C)/C=C(C)/C=C/C1=CC2=C(Cl)C(=O)C(C)(OC(C)=O)C(=O)C2=CO1 (configuration not stated),active: 9.28 µM
16,O=C(Nc1ccc2c(c1)OCCO2)c1ccc(Br)cc1,inactive
17,COC(=O)N1C(=O)[C@](c2ccsc2)(C(C)C)N1C(=O)OC,inactive
18,COC1CC(O[C@H]2/C(C)=C/CC3CC(C[C@]4(CCC(C)C(C5CCCCC5)O4)O3)OC(=O)[C@H]3C=C(C)/C(=N/O)C4OC/C(=C\C=C\[C@@H]2C)[C@@]43O)OC(C)C1O (some centres not stated),"inconclusive: 16.9 µM [inhibitor, single point]"
19,CN(C)S(=O)(=O)c1ccc(C(=O)NCC(C)(C)CN=C2NS(=O)(=O)c3ccccc32)cc1,"inconclusive: 4.15 µM [inhibitor, full curve]"
20,O=C(CCn1c(=S)[nH]c2cc3c(cc2c1=O)OCO3)NCc1ccccc1Cl,"inconclusive: 11.7 µM [inhibitor, single point]"
21,O=C(Nc1nnc(-c2ccco2)s1)C1CCN(S(=O)(=O)c2ccc(Cl)cc2)CC1,inactive
22,O=C(O)c1cccnc1SCc1ccccc1,inactive
23,COC(=O)c1ccc(Oc2cc(C)nc(SC)n2)cc1,"inconclusive: 4.15 µM [inhibitor, partial curve, poor fit]"
24,COc1cc(O)c(C(=O)c2ccccc2)cc1S(=O)(=O)O,"inconclusive: 15.1 µM [inhibitor, single point]"

# Copied from the list:
# CCC(C)/C=C(C)/C=C/C1=CC2=C(Cl)C(=O)C(C)(OC(C)=O)C(=O)C2=CO1 (configuration not stated) – Potency: active: 9.28 µM
# CC(=O)c1cccc(NC(=O)CCn2c(=S)oc3ccccc32)c1 – Potency: inactive

# (more compounds)

row,Structure (SMILES),Potency
1,COc1cc(S(=O)(=O)N2CCCCCC2)c(OC)cc1Br,inactive
2,COc1ccc(C2N(C(=O)C(F)(F)F)C(C)CN2S(=O)(=O)c2ccc(C)cc2)cc1 (configuration not stated),inactive
3,O=c1[nH]nc(Cc2ccc(Cl)cc2)c2ccccc12,"inconclusive: 9.28 µM [inhibitor, single point]"
4,COc1ccccc1-c1cc(C(=O)NN)[nH]n1,inactive
5,Cc1ccc(SCCC(=O)N2CCC(C(N)=O)CC2)cc1,"inconclusive: 18.5 µM [inhibitor, single point]"
6,Cc1ccc(C(c2nnnn2C2CCCCC2)N2CCc3ccccc32)cc1 (configuration not stated),"inconclusive: 18.5 µM [inhibitor, single point]"
7,CCC(=O)Nc1cccc(NC(=O)CSc2nnnn2Cc2ccccc2)c1,active: 2.08 µM
8,COc1cccc(C(=O)Nc2nnc(S(=O)(=O)N3CCCC3)s2)c1,inactive
9,COc1ccc(C(=O)c2c(-c3cccc(C)c3)oc3ccc(N4CCOCC4)cc23)cn1,"inconclusive: 16.5 µM [inhibitor, single point]"
10,O=C(c1nc2ccccn2c1CNCCCn1ncc2ccccc21)N1CCOCC1,"inconclusive: 11.7 µM [inhibitor, single point]"
11,Cc1ccc(N=C2NC(=O)C(CO)(CO)S2)cc1,"inconclusive: 18.5 µM [inhibitor, single point]"
12,O=C(C1CCC1)N1CCc2cc(S(=O)(=O)Nc3ccc4c(c3)OCO4)ccc21,inactive
13,CN(Cc1ccccc1)C(=O)c1nc2ccccn2c1CNCCn1cccn1,"inconclusive: 8.28 µM [inhibitor, single point]"
14,COc1ccc(NC(=O)CSCC(=O)N(C)Cc2cccc(OC)c2OC)cc1,inactive
15,c1cncc(C2OCC3(CO2)COC(c2cccnc2)OC3)c1 (configuration not stated),"inconclusive: 9.28 µM [inhibitor, single point]"
16,CCCC(=O)Nc1ccc(Cl)c(NC(=O)c2ccc([N+](=O)[O-])cc2Cl)c1,"inconclusive: 5.86 µM [inhibitor, single point]"
17,CCOc1ccc(CNc2ncnc(N)n2)cc1,"inconclusive: 11.7 µM [inhibitor, partial curve, poor fit]"
18,CCOc1ccc(Nc2nc(NCCN3CCOCC3)nc(OC)n2)cc1,"inconclusive: 13.1 µM [inhibitor, partial curve, poor fit]"
19,CC(C)c1nc2cc(C(=O)N(C)Cc3ccc(F)cc3)ccc2o1,"inconclusive: 18.5 µM [inhibitor, single point]"
20,Fc1ccc(-c2nc3c(-c4ccc(F)cc4)cnn3cc2CCN2CCOCC2)cc1,"inconclusive: 10.4 µM [inhibitor, single point]"
21,O=c1ccccn1Cc1c(F)cccc1Cl,inactive
22,COc1ccc(C(=O)NNC(=S)NC(=O)c2ccc(OC)cc2)cc1,active: 9.28 µM
23,CCN1C(=O)[C@H]2[C@@H](c3ccc(-c4ccc5c(c4)OCO5)c(OC)c3)N[C@@](CC(C)C)(C(=O)OC)[C@H]2C1=O,active: 13.1 µM
24,CCOc1ccccc1CNC(=O)CCCn1ccc2cc(S(=O)(=O)N3CCCC3)ccc21,"inconclusive: 18.5 µM [inhibitor, single point]"

# Laid out differently: results already given.
row | Structure (SMILES) | Potency
3 | O=c1[nH]nc(Cc2ccc(Cl)cc2)c2ccccc12 | inconclusive: 9.28 µM [inhibitor, single point]
4 | COc1ccccc1-c1cc(C(=O)NN)[nH]n1 | inactive
8 | COc1cccc(C(=O)Nc2nnc(S(=O)(=O)N3CCCC3)s2)c1 | inactive
16 | CCCC(=O)Nc1ccc(Cl)c(NC(=O)c2ccc([N+](=O)[O-])cc2Cl)c1 | inconclusive: 5.86 µM [inhibitor, single point]
